We go through six molecules from publication PMC11704248, “Alternative splicing in the DBD linker region of p63 modulates binding to DNA and iASPP in vitro” (Cell Death & Disease, 2025).

Amino acid sequences for entries named in this document (tags omitted). A change or cut given only in a name is not applied to a line headed by its entry.
UniProt Q13625: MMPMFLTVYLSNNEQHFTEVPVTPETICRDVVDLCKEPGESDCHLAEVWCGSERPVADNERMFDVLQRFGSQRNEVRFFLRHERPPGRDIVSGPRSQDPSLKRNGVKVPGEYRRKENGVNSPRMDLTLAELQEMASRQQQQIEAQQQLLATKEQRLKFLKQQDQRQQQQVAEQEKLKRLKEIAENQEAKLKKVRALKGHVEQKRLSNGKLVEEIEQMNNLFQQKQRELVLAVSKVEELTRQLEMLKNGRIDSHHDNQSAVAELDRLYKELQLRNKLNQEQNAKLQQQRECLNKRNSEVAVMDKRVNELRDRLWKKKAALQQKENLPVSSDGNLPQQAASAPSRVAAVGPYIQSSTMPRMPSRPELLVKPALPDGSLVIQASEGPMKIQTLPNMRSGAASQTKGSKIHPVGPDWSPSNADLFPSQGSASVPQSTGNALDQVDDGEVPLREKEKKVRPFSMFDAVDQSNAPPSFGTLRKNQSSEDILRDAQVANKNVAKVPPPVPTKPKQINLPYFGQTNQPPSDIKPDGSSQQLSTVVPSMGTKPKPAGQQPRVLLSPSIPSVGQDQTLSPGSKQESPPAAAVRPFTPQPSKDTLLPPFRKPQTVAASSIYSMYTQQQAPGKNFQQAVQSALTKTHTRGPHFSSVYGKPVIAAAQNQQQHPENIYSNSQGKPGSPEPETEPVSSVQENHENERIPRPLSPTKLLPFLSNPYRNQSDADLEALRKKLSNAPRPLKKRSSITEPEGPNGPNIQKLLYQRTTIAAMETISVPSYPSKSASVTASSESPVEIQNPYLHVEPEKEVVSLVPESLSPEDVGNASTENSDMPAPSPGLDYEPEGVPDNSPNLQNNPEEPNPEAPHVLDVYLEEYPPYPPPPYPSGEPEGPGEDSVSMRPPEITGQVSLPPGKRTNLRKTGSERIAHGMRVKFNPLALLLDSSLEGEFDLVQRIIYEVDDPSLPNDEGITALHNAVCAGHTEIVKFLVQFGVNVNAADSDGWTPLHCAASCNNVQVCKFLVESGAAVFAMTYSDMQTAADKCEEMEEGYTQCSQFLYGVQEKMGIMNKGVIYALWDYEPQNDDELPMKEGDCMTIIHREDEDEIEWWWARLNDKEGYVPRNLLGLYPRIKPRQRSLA

Common to all, as to experiment: pull-down; purified GST-tagged ASPP CTDs immobilised on magnetic glutathione agarose beads; N-terminally Myc-tagged prey in vitro translated in RRL; 3 h at 4 °C; 50 mM Tris pH 8.0, 150 mM NaCl, 0.1% Tween-20; WB with α-Myc; only the target purified
In assay [1] the target is GST-tagged ASPP2 CTD (UniProt Q13625).
The target in a further assay is T1, GST-tagged iASPP CTD (UniProt Q8WUF5).
T1 sequence: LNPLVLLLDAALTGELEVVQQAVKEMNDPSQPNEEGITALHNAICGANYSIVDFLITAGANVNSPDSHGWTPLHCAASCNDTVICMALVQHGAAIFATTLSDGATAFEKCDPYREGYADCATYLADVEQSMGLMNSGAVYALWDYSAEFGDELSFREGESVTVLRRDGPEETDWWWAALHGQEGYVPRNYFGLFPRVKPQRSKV

For assay [2], the target named is GST-tagged ASPP2 CTD (UniProt Q13625). The source holds these as a separate data set.

Where two headings read alike, the source gives them in different places. No constants are given. Whether binding was seen depends on the method and setting. Binding seen in cells or lysates may run through a third protein. Binding can be weak; no strength is given. For part of these data: Sequences can lack the tags named with a protein.

On to “Myc-tagged ΔNp63α ΔExon8 (from UniProt Q9H3D4-2)”, for which the binding entry with GST-tagged ASPP2 CTD [1] is recorded as “binds”.
On to Myc-tagged TAp63α, for which the binding entry in the assay with GST-tagged iASPP CTD was “no binding”.
On the same count and under the same terms, with Myc-tagged ΔNp63α R279H ΔExon8 the entry was “no binding”.
The same measure, in the same setting: with Myc-tagged ΔNp73α R268H the entry was “binds”.
The same measure, in the same setting: with Myc-tagged ΔNp63α R279H the entry was “binds”.

B1: Myc-tagged ΔNp63α WT (protein, UniProt Q9H3D4-2 1-586)
chain: MLYLENNAQTQFSEPQYTNLGLLNSMDQQIQNGSSSTSPYNTDHAQNSVTAPSPYAQPSSTFDALSPSPAIPSNTDYPGPHSFDVSFQQSSTAKSATWTYSTELKKLYCQIAKTCPIQIKVMTPPPQGAVIRAMPVYKKAEHVTEVVKRCPNHELSREFNEGQIAPPSHLIRVEGNSHAQYVEDPITGRQSVLVPYEPPQVGTEFTTVLYNFMCNSSCVGGMNRRPILIIVTLETRDGQVLGRRCFEARICACPGRDRKADEDSIRKQQVSDSTKNGDGTKRPFRQNTHGIQMTSIKKRRSPDDELLYLPVRGRETYEMLLKIKESLELMQYLPQHTIETYRQQQQQQHQHLLQKQTSIQSPSSYGNSSPPLNKMNSMNKLPSVSQLINPQQRNALTPTTIPDGMGANIPMMGTHMPMAGDMNGLSPTQALPPPLSMPSTSHCTPPPPYPTDCSIVSFLARLGCSSCLDYFTTQGLTTIYQIEHYSMDDLASLKIPEQFRHAIWKGILDHRQLHEFSSPSHLLRTPSSASTVSVGSSETRGERVIDAVRFTLRQTISFPPRDEWNDFNFDMDARRNKQQRIKEEGE
As for B1, in the assay with GST-tagged ASPP2 CTD [2], the binding entry is recorded as “binds”.
